Data from paper PMC4039144.
Results are given in words; binding and its absence hold for the method and conditions named. In cells and extracts the contact can be indirect. Some binding calls cover weakened binding; strength is not graded here.

Amino acid sequences for entries named in this document (tags omitted).
UniProt P40763: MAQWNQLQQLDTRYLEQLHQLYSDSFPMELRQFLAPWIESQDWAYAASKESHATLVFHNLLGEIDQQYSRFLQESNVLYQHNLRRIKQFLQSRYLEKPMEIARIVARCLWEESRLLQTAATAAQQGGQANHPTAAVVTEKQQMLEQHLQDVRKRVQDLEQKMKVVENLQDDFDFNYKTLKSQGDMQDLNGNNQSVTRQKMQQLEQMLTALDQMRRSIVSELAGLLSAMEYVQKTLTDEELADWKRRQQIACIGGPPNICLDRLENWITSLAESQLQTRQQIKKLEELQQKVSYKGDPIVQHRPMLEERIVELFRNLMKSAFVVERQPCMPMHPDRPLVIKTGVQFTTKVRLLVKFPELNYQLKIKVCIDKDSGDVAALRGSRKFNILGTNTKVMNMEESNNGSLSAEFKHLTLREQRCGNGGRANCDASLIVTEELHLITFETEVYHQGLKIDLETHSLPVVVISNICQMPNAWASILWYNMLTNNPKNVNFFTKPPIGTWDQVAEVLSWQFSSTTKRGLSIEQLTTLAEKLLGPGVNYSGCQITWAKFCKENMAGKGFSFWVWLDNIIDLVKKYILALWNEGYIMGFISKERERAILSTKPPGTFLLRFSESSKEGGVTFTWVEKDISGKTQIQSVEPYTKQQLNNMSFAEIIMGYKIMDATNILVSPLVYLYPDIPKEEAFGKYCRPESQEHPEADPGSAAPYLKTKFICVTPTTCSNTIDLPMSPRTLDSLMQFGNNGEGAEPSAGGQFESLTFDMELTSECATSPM
UniProt P14902: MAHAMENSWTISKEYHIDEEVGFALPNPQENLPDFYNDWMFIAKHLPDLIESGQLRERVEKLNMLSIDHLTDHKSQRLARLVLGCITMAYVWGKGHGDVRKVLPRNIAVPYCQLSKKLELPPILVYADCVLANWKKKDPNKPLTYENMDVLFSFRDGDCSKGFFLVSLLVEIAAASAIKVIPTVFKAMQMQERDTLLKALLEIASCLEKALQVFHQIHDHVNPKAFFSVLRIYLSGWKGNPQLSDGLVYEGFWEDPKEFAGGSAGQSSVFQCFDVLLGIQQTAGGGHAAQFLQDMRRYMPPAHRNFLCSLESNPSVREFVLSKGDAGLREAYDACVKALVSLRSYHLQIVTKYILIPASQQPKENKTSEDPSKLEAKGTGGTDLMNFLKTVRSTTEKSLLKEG

Molecular target: signal transducer and activator of transcription 3 (STAT3) (human (endogenous in primary AML blasts)) (UniProt P40763)
Assay: co-IP; lysates (2 mg/sample) of primary AML blasts after 100 ng/ml IFN-γ for 16 hours, or without IFN-γ; Co-IP buffer with 137 mM NaCl, 1% NP-40, 20 mM Tris-HCl pH 8, 10% glycerol; anti-STAT3 or anti-IDO1 antibodies on Protein A resin, 4 hours at 4°C; immunoblot with the other antibody; normal rabbit IgG as negative control

In the case of “Indoleamine 2,3-dioxygenase 1 (IDO1) (from UniProt P14902 1-403) (enzyme)”, the binding was “binds”.
